For data set [1], the system named is primary HCC tissue samples. Briefly: Identification and label-free LC-MS relative quantitation of HLA-presented peptides (presentation profiles/scores), HCC versus normal tissues. Further details: species or system human; key to PeptidePresentation (presentation score): very highly over-presented on tumors compared to a panel of normal tissues (+++); highly over-presented on tumors compared to a panel of normal tissues (++); over-presented on tumors compared to a panel of normal tissues (+). The conditions noted are these: for PeptidePresentation (presentation score): HCC tumors compared to a panel of normal tissues.

Data set [2] relates to tumor samples of other tumor types. Briefly: Over-presentation of peptides on additional tumor types versus normal tissues (LC-MS). Further details: species or system human. To be noted: over-presentation on more than 5% of the measured tumor samples, or presentation on more than 5% with ratio of geometric means tumor vs normal tissues larger than 3.
Data set [3] concerns source genes of the peptides in HCC and normal tissues. Put plainly: mRNA expression profiling of source genes by Affymetrix microarray (expression scores). Further details: species or system human; key: very highly overexpressed in tumors compared to a panel of normal tissues (+++); highly overexpressed in tumors compared to a panel of normal tissues (++); overexpressed in tumors compared to a panel of normal tissues (+). The conditions noted are these: source gene mRNA in tumors compared to a panel of normal tissues.

For some of these results: Expression values are those of the mRNA of the gene that encodes the peptide; a gene is named only where it was looked up.

As to “97: peptide found in APOB (gene looked up) (SLLPQLIEV; listed as Homo sapiens) [compound 97]”, the “PeptidePresentation (presentation score)” value in data set [1] is reported as “++”. Further, the “Additional Entities (additional tumor types on which the peptide was found over-presented)” value in data set [2] is recorded as “SCLC”. The “Gene Expression (expression score)” value in data set [3] is recorded as “+++”.

For “233: peptide found in RABGGTB (gene looked up) (ALLGKLDAI; listed as Homo sapiens) [compound 233]”, the “PeptidePresentation (presentation score)” value in data set [1] is on record as “+”. For the same substance, in data set [2], the “Additional Entities (additional tumor types on which the peptide was found over-presented)” value was “CLL, OC, Urinary bladder cancer, Gallbladder Cancer, Bile Duct Cancer, AML, NHL” and the “Other relevant organs/diseases (additional tumor types on which the peptide was found over-presented)” value is on record as “Kidney, Colon, Rectum”. Also, the “Gene Expression (expression score)” value in data set [3] is given as “+”.

As to “10: peptide found in USO1 (gene looked up) (SLLEEFDFHV; listed as Homo sapiens) [compound 10]”, in data set [1], the “PeptidePresentation (presentation score)” value is on record as “+++”. Also, in data set [2], the “Additional Entities (additional tumor types on which the peptide was found over-presented)” value was “NSCLC, BRCA, OC, Esophageal Cancer, Uterine Cancer” and the “Other relevant organs/diseases (additional tumor types on which the peptide was found over-presented)” value is reported as “Kidney”. For the same substance, the “Gene Expression (expression score)” value in data set [3] is given as “+”.

In the case of “19: peptide found in APOB (gene looked up) (FLEETKATV; listed as Homo sapiens) [compound 19]”, the “PeptidePresentation (presentation score)” value in data set [1] is recorded as “+++”. Moreover, the “Gene Expression (expression score)” value in data set [3] was “+++”.

“124: peptide found in APOB (gene looked up) (LLIDVVTYL; listed as Homo sapiens) [compound 124]”: the “PeptidePresentation (presentation score)” value in data set [1] is given as “+++”. For the same substance, the “Gene Expression (expression score)” value in data set [3] was “+++”.

On to “148: peptide found in SLC16A1 (gene looked up) (GLFAPLVFL; listed as Homo sapiens) [compound 148]”, for which the “PeptidePresentation (presentation score)” value in data set [1] is recorded as “+++”. In data set [2], the “Additional Entities (additional tumor types on which the peptide was found over-presented)” value is reported as “Esophageal Cancer, Gallbladder Cancer, Bile Duct Cancer, NHL” and the “Other relevant organs/diseases (additional tumor types on which the peptide was found over-presented)” value is on record as “Kidney”. Also, the “Gene Expression (expression score)” value in data set [3] is “+”.

Turning to “117: peptide found in SLC16A1 (gene looked up) (YAFPKSITV; listed as Homo sapiens) [compound 117]”, the “PeptidePresentation (presentation score)” value in data set [1] was “+++”. Besides, the “Gene Expression (expression score)” value in data set [3] is “+”.

As to “113: peptide found in APOB (gene looked up) (VLMDKLVEL; listed as Homo sapiens) [compound 113]”, the “PeptidePresentation (presentation score)” value in data set [1] was “++”. For the same substance, in data set [3], the “Gene Expression (expression score)” value was “+++”.

Regarding “28: peptide found in APOB (gene looked up) (TLQDHLNSL; listed as Homo sapiens) [compound 28]”, the “PeptidePresentation (presentation score)” value in data set [1] is on record as “+++”. Moreover, the “Gene Expression (expression score)” value in data set [3] was “+++”.

Regarding “31: peptide found in APOB (gene looked up) (YQMDIQQEL; listed as Homo sapiens) [compound 31]”, the “PeptidePresentation (presentation score)” value in data set [1] was “++”. For the same substance, in data set [2], the “Additional Entities (additional tumor types on which the peptide was found over-presented)” value was “SCLC”. Further, the “Gene Expression (expression score)” value in data set [3] is given as “+++”.

On to “66: peptide found in CYP2E1 (gene looked up) (KLHEEIDRV; listed as Homo sapiens) [compound 66]”, for which the “PeptidePresentation (presentation score)” value in data set [1] is given as “++”. In addition, the “Gene Expression (expression score)” value in data set [3] is listed as “+++”.

As to “142: peptide found in AQP9 (gene looked up) (AVIGGLIYV; listed as Homo sapiens) [compound 142]”, in data set [1], the “PeptidePresentation (presentation score)” value is on record as “++”. For the same substance, in data set [3], the “Gene Expression (expression score)” value is given as “+++”.

Turning to “217: peptide found in APOB (gene looked up) (DYIPYVFKL; listed as Homo sapiens) [compound 217]”, the “PeptidePresentation (presentation score)” value in data set [1] was “+++”. Also, in data set [3], the “Gene Expression (expression score)” value is recorded as “+++”.

As for “21: peptide found in APOB (gene looked up) (QLIEVSSPITL; listed as Homo sapiens) [compound 21]”, in data set [1], the “PeptidePresentation (presentation score)” value is listed as “+++”. In data set [3], the “Gene Expression (expression score)” value was “+++”.

Consider “302: peptide found in IGF2BP3 (gene looked up) (KIQEILTQV; listed as Homo sapiens) [compound 302]”, for which the “PeptidePresentation (presentation score)” value in data set [1] is reported as “+++”. In addition, in data set [2], the “Additional Entities (additional tumor types on which the peptide was found over-presented)” value is “NSCLC, SCLC, GC, Melanoma, OC, Esophageal Cancer, Urinary bladder cancer, Uterine Cancer, Gallbladder Cancer, Bile Duct Cancer, AML, NHL, PC” and the “Other relevant organs/diseases (additional tumor types on which the peptide was found over-presented)” value is on record as “Kidney, Brain, Colon, Rectum, Pancreas, CLL”. Besides, the “Gene Expression (expression score)” value in data set [3] is “+”.

Turning to “20: peptide found in APOB (gene looked up) (KLSNVLQQV; listed as Homo sapiens) [compound 20]”, in data set [1], the “PeptidePresentation (presentation score)” value is on record as “+++”. Besides, in data set [2], the “Additional Entities (additional tumor types on which the peptide was found over-presented)” value is “SCLC”. Moreover, the “Gene Expression (expression score)” value in data set [3] is given as “+++”.

Regarding “327: peptide found in NDC80 (gene looked up) (GLNEEIARV; listed as Homo sapiens) [compound 327]”, the “PeptidePresentation (presentation score)” value in data set [1] is listed as “++”. In addition, the “Other relevant organs/diseases (additional tumor types on which the peptide was found over-presented)” value in data set [2] is listed as “Brain, Colon, Rectum”. Further, in data set [3], the “Gene Expression (expression score)” value is “+”.

Consider “320: peptide found in TARS1 (gene looked up) (GLADNTVIAKV; listed as Homo sapiens) [compound 320]”, for which, in data set [1], the “PeptidePresentation (presentation score)” value was “+”. The “Gene Expression (expression score)” value in data set [3] is “+”.

On to “84: peptide found in ABCC2 (gene looked up) (QLTPVLVSV; listed as Homo sapiens) [compound 84]”, for which, in data set [1], the “PeptidePresentation (presentation score)” value is “++”. In addition, the “Gene Expression (expression score)” value in data set [3] is reported as “++”.

In the case of “120: peptide found in TF (gene looked up) (YLGEEYVKA; listed as Homo sapiens) [compound 120]”, the “PeptidePresentation (presentation score)” value in data set [1] is “+++”. Also, in data set [3], the “Gene Expression (expression score)” value is listed as “+++”.

As to “4: peptide found in APOB (gene looked up) (KLQDFSDQL; listed as Homo sapiens) [compound 4]”, the “PeptidePresentation (presentation score)” value in data set [1] is “+++”. Besides, the “Gene Expression (expression score)” value in data set [3] is listed as “+++”.

On to “93: peptide found in CYP2E1 (gene looked up) (RLYTMDGITV; listed as Homo sapiens) [compound 93]”, for which the “PeptidePresentation (presentation score)” value in data set [1] is reported as “+++”. Further, the “Gene Expression (expression score)” value in data set [3] is “+++”.

Consider “318: peptide found in CPS1 (gene looked up) (KLNEINEKI; listed as Homo sapiens) [compound 318]”, for which the “PeptidePresentation (presentation score)” value in data set [1] is listed as “+”. Moreover, the “Gene Expression (expression score)” value in data set [3] was “+++”.

Take “29: peptide found in APOB (gene looked up) (YIQDEINTI; listed as Homo sapiens) [compound 29]”: the “PeptidePresentation (presentation score)” value in data set [1] is given as “+++”. For the same substance, the “Gene Expression (expression score)” value in data set [3] was “+++”.

Turning to “83: peptide found in ABCB11 (gene looked up) (QLHDFVMSL; listed as Homo sapiens) [compound 83]”, the “PeptidePresentation (presentation score)” value in data set [1] was “+++”. The “Gene Expression (expression score)” value in data set [3] is reported as “+++”.

With “109: peptide found in APOB (gene looked up) (TLYALSHAV; listed as Homo sapiens) [compound 109]”, the “PeptidePresentation (presentation score)” value in data set [1] is “+”. Besides, the “Gene Expression (expression score)” value in data set [3] is “+++”.

Take “67: peptide found in APOB (gene looked up) (KLKETIQKL; listed as Homo sapiens) [compound 67]”: in data set [1], the “PeptidePresentation (presentation score)” value is given as “+++”. The “Gene Expression (expression score)” value in data set [3] was “+++”.

Take “7: peptide found in APOB (gene looked up) (ALVDTLKFV; listed as Homo sapiens) [compound 7]”: the “over-presentation in HCC compared with normal tissues” value in data set [1] (FIG. 1 presentation profiles) was “over-presentation”. In addition, the “PeptidePresentation (presentation score)” value in data set [1] is reported as “+++”. Further, the “Gene Expression (expression score)” value in data set [3] is “+++”.

Take “82: peptide found in APOB (gene looked up) (NVFDGLVRV; listed as Homo sapiens) [compound 82]”: the “PeptidePresentation (presentation score)” value in data set [1] is recorded as “+”. The “Gene Expression (expression score)” value in data set [3] is given as “+++”.

“218: peptide found in APOB (gene looked up) (VYQGAIRQI; listed as Homo sapiens) [compound 218]”: the “PeptidePresentation (presentation score)” value in data set [1] is “+”. Also, the “Gene Expression (expression score)” value in data set [3] was “+++”.

Regarding “126: peptide found in APOB (gene looked up) (TLLDSPIKV; listed as Homo sapiens) [compound 126]”, the “PeptidePresentation (presentation score)” value in data set [1] is reported as “++”. Moreover, the “Gene Expression (expression score)” value in data set [3] is “+++”.

On to “27: peptide found in APOB (gene looked up) (TLPDFRLPEI; listed as Homo sapiens) [compound 27]”, for which the “PeptidePresentation (presentation score)” value in data set [1] is reported as “+++”. Besides, the “Gene Expression (expression score)” value in data set [3] is given as “+++”.

Turning to “42: peptide found in ACSL4 (gene looked up) (ALLGGNVRMML; listed as Homo sapiens) [compound 42]”, in data set [1], the “PeptidePresentation (presentation score)” value was “+++”. In addition, in data set [3], the “Gene Expression (expression score)” value is reported as “+”.

(Values after US10064926B2, “Peptides and combination of peptides for use in immunotherapy against hepatocellular carcinoma (HCC) and other cancers” (Immatics biotechnologies GmbH, priority 2014, dated 2018).)
